Measured data: PubChem BioAssay AID1224828 (NIAID, 2016)

Aim: 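Regulators linking TLR4 signalling to p65 nuclear translocation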 (primary screen)
System: mouse RAW264.7 G9 macrophage reporter cells (GFP-p65, Tnf promoter-mCherry)
Reagents: siRNA pool against mouse genes, 100 nM
Timing: 2 days siRNA transfection, then 40 min LPS before fixation
Challenge: LPS (Salmonella minnesota R595) at 10 ng/ml
Read-out: 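Imaged p65 nuclear translocation ratio, normalised to the plate median, converted to robust z-scores and averaged across two replicates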
Reading the numbers: p65 translocation robust z-score: higher = more nuclear NF-kappaB p65 after LPS than the plate median; nuclear/cytoplasmic p65 ratio: higher = more nuclear NF-kappaB p65
Call rule: 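Called active when z exceeds 3.3 or falls under -1.56 (median of Tlr4 controls), giving activity score of at least 50; no calls for control wells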
Calls: active = hit (p65 shift raised or lowered); inactive = no clear change
Shown is an unselected part of about 17,000 deposited reagents. In the full data, 762 (4.5%) got an active call. 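Active calls include both raised and lowered p65 entry, mostly lowered; wells with fewer than 50 cells lack a z-score.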 The raw values are shown without normalisation. Entries without a mark were called inactive.

| gene | p65 translocation robust z-score | nuclear/cytoplasmic p65 ratio, rep 1 | nuclear/cytoplasmic p65 ratio, rep 2 | low cell count flag |
| --- | --- | --- | --- | --- |
| Got1 | – | 1.42 | 1.49 | fewer than 50 cells per well; well left out of scoring |
| Myo18a | -0.31 | 1.7 | 1.57 | enough cells to score |
| Stk10 | -0.38 | 1.49 | 1.34 | enough cells to score |
| Tmbim7 | – | 1.08 | 1.39 | fewer than 50 cells per well; well left out of scoring |
| Mcf2l | 1.97 | 1.93 | 1.91 | enough cells to score |
| Sprr2k | -0.55 | 1.28 | 1.23 | enough cells to score |
| Mtg2 | – | 1.42 | 1.55 | fewer than 50 cells per well; well left out of scoring |
| Usp37 | -0.2 | 1.47 | 1.7 | enough cells to score |

Not a retest: 4 of the entries above.
| gene | p65 translocation robust z-score | nuclear/cytoplasmic p65 ratio, rep 1 | nuclear/cytoplasmic p65 ratio, rep 2 | low cell count flag |
| --- | --- | --- | --- | --- |
| Stk10 | -0.38 | 1.49 | 1.34 | enough cells to score |
| Tmbim7 | – | 1.08 | 1.39 | fewer than 50 cells per well; well left out of scoring |
| Mcf2l | 1.97 | 1.93 | 1.91 | enough cells to score |
| Sprr2k | -0.55 | 1.28 | 1.23 | enough cells to score |

Additional reagents:
| gene | p65 translocation robust z-score | nuclear/cytoplasmic p65 ratio, rep 1 | nuclear/cytoplasmic p65 ratio, rep 2 | low cell count flag |
| --- | --- | --- | --- | --- |
| Or8k22 | -0.74 | 1.51 | 1.5 | enough cells to score |
| Apoe | -1.18 | 1.54 | 1.34 | enough cells to score |
| Eif2ak1 | -0.87 | 1.52 | 1.3 | enough cells to score |
| Dzip1 | -1.67 (active) | 1.23 | 1.19 | enough cells to score |
| Chrna9 | -1 | 1.33 | 1.25 | enough cells to score |
| Haus2 | – | 1.63 | 1.44 | fewer than 50 cells per well; well left out of scoring |
| Alg2 | -0.57 | 1.45 | 1.67 | enough cells to score |
| Aldh1a2 | -0.3 | 1.53 | 1.62 | enough cells to score |
| Or5p4 | – | 1.42 | 1.39 | fewer than 50 cells per well; well left out of scoring |
| Vmn1r208 | – | 1.01 | 1.36 | fewer than 50 cells per well; well left out of scoring |
| Ankrd1 | -0.71 | 1.51 | 1.52 | enough cells to score |
| Defa6 | 0.58 | 1.56 | 1.42 | enough cells to score |
| Olfm5 | – | 1.25 | 1.36 | fewer than 50 cells per well; well left out of scoring |
| Mdn1 | 0.91 | 1.47 | 1.68 | enough cells to score |
| Cep20 | -0.63 | 1.41 | 1.47 | enough cells to score |
| Or1j13 | -0.18 | 1.49 | 1.48 | enough cells to score |
